# Test results published in the supplement of paper PMC6411743.
# Sequences of proteins named here, by UniProt entry; tags and fusion partners are left off. A change or cut given only in a name is not applied to a line headed by its entry.
# UniProt Q01082, whole entry: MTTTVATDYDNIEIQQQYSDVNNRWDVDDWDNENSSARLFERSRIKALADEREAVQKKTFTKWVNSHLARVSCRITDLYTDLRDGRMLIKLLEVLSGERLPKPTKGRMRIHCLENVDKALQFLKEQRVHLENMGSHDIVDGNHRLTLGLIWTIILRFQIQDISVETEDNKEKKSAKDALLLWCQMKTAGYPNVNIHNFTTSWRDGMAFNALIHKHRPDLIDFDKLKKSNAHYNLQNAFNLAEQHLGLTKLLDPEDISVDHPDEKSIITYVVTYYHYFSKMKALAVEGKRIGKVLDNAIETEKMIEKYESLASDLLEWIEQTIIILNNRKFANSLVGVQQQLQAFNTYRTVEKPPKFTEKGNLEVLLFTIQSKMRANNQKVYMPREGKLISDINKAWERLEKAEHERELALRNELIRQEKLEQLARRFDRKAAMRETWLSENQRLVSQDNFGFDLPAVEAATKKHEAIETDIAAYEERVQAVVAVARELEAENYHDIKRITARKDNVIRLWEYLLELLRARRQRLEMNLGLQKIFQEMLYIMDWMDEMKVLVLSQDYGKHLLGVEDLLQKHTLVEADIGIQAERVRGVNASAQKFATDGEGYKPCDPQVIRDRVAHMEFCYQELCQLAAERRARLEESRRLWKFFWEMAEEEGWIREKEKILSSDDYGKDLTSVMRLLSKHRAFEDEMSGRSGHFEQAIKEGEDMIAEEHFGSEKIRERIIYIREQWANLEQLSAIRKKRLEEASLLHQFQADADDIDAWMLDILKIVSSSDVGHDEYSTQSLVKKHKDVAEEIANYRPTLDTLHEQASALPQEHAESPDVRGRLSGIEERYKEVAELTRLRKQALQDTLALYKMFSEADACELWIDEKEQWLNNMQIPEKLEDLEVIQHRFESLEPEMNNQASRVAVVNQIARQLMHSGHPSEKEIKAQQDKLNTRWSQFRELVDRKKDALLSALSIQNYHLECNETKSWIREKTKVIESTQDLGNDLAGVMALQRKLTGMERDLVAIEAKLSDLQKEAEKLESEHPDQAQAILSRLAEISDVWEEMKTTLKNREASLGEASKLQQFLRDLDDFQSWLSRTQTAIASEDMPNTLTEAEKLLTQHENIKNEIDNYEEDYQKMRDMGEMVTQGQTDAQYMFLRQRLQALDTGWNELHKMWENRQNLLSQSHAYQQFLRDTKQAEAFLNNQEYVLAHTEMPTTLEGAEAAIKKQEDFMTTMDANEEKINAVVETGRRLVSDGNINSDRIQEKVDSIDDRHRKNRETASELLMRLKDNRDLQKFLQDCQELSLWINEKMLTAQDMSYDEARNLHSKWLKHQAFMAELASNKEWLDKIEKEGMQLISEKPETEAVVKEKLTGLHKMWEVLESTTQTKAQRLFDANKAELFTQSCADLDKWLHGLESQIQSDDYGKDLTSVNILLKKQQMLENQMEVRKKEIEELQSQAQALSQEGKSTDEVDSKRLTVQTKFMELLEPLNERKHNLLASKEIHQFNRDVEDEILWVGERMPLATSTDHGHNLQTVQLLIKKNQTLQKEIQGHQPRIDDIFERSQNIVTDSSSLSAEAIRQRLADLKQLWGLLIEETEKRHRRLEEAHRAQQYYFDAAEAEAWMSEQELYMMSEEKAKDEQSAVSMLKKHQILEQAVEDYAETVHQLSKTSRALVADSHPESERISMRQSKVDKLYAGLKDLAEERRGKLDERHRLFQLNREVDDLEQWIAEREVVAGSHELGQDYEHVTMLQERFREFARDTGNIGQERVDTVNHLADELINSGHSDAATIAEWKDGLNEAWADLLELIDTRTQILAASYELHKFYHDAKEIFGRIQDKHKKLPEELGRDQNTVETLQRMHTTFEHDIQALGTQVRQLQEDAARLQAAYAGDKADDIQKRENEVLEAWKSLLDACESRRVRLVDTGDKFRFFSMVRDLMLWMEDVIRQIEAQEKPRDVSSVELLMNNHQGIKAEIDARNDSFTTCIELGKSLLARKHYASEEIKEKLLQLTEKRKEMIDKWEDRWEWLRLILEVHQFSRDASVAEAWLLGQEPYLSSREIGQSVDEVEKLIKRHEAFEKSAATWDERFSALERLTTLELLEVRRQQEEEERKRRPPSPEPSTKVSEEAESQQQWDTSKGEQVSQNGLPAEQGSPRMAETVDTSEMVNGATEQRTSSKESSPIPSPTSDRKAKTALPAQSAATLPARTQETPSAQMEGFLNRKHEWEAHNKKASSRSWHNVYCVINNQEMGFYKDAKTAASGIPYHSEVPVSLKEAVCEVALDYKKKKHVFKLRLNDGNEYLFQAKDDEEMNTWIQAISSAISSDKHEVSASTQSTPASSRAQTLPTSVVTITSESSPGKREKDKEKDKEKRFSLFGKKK
# UniProt Q13769: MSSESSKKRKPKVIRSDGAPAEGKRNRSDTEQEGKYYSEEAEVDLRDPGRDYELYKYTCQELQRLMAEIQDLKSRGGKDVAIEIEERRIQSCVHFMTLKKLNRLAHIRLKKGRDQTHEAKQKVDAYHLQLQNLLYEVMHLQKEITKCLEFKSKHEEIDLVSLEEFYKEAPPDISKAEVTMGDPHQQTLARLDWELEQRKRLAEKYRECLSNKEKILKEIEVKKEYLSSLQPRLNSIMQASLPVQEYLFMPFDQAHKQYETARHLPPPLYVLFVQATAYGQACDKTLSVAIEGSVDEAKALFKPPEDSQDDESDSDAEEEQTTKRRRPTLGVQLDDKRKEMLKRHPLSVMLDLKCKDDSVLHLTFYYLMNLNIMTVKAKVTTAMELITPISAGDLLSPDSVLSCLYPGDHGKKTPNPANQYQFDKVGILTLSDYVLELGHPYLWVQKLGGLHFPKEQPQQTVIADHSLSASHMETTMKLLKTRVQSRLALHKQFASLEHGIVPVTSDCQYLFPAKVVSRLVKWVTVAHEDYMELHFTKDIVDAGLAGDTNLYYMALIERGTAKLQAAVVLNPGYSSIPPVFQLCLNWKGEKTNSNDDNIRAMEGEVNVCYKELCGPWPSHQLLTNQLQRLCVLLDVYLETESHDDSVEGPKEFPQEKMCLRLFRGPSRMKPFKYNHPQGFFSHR
# UniProt Q13619, whole entry: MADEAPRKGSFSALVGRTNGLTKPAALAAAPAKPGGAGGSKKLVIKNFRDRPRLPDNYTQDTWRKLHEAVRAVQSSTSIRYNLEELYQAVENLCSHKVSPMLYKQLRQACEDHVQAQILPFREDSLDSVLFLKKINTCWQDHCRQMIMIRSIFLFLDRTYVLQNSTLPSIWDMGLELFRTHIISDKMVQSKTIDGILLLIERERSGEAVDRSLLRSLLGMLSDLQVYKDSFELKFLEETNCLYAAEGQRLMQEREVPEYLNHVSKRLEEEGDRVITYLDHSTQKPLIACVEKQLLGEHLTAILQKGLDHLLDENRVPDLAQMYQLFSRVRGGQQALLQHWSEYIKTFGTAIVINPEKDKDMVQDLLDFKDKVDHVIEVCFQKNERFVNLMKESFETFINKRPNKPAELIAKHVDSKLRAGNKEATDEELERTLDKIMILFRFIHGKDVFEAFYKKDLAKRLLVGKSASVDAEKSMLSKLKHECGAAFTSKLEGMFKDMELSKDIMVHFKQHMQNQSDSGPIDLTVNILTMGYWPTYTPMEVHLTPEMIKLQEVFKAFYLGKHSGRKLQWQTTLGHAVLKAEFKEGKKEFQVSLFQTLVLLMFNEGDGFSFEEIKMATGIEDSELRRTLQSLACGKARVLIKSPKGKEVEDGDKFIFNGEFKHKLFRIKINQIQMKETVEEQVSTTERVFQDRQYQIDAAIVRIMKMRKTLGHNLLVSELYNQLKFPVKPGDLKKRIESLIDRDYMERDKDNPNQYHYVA
# UniProt Q01826: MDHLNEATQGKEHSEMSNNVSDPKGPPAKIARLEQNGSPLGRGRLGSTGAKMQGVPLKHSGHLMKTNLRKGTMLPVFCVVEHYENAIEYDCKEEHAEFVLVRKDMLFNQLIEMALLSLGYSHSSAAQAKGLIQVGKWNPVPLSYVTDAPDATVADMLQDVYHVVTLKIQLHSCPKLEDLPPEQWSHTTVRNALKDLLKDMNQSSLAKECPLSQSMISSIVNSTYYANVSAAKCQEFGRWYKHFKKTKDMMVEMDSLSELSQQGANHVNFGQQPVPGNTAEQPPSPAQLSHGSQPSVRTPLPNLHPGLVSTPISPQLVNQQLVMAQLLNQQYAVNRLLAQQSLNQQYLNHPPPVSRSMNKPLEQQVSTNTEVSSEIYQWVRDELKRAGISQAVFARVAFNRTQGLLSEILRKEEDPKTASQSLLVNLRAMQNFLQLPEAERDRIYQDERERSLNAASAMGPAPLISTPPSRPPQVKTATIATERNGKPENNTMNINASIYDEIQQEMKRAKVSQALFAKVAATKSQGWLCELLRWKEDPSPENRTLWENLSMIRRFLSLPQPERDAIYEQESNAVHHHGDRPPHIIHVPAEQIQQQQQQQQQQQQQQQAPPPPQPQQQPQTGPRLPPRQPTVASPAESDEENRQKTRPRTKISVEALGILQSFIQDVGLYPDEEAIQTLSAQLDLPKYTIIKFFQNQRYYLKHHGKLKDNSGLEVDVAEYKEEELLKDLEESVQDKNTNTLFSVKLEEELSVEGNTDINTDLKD
# UniProt Q6P1K8: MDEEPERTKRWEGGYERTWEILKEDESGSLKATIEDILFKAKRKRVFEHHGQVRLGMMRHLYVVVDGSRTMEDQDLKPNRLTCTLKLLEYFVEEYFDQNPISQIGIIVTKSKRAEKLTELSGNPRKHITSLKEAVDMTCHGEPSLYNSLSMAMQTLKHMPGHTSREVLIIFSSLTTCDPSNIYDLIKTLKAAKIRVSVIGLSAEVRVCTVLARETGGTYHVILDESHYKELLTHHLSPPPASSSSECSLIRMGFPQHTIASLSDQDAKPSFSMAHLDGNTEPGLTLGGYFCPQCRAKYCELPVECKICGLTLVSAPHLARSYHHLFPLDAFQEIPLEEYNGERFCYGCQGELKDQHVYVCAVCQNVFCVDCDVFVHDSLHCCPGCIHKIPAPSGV
# UniProt Q10567: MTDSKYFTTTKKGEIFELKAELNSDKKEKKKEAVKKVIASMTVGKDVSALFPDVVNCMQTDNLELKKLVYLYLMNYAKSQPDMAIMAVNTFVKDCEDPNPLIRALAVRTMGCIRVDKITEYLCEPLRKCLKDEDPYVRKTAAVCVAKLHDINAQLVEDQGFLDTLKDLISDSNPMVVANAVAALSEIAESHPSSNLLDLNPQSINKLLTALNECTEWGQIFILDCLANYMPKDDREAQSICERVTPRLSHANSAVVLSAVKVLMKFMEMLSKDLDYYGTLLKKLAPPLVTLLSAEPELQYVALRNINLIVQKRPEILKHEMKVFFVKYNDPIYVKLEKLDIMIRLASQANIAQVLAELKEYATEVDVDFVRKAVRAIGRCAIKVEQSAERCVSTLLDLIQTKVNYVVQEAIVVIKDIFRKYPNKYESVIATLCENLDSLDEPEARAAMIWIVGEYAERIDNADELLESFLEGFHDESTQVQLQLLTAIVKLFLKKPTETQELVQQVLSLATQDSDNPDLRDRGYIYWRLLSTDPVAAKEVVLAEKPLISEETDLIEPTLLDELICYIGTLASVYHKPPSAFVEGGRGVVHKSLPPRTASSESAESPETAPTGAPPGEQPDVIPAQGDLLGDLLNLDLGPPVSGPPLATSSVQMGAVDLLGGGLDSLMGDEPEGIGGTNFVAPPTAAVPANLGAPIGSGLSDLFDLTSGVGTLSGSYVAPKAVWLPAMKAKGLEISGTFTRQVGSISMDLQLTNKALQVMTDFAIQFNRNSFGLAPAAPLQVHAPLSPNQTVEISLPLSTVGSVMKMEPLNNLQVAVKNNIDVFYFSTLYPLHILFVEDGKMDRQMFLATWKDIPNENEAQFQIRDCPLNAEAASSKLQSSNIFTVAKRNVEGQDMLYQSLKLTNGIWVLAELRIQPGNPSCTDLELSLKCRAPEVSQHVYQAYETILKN
# UniProt Q06945: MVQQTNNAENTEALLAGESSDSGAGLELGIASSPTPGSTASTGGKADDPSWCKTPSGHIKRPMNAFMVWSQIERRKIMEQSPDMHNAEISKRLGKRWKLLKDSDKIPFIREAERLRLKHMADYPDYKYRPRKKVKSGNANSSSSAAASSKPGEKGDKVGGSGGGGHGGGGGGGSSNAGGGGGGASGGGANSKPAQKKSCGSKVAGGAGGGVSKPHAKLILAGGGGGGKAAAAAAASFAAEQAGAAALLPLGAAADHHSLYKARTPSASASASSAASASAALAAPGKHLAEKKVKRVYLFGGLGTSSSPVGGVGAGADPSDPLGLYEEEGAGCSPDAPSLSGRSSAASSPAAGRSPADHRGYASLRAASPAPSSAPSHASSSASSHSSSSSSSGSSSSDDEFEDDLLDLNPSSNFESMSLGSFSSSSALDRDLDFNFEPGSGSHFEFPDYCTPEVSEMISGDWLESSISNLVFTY
# ± gives the standard deviation of the averaged measurements. The list shows a part of the results.
# Compound: Nc1nc2c(ncn2[C@@H]2O[C@H](COP(=O)(O)OP(=O)(O)OP(=O)(O)O)[C@@H](O)[C@H]2O)c(=O)[nH]1 [guanosine triphosphate]
# Test: NP40-soluble protein abundance relative to vehicle (solubility fold change) (ratio); higher = more soluble protein in presence of GTP
# Outline: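 Jurkat crude lysate (Dounce-homogenised) was treated with eight concentrations from 0.1 to 10 mM for 10 min at room temperature, then 3 min at 37 °C. It was solubilised with 0.8% NP40 and benzonase (60 min, 4 °C) and ultracentrifuged, and the supernatant was TMT-labelled for LC-MS/MS. Intensities were vsn-normalised, and the value is the fold change against the NP40-processed vehicle per replicate, from three independent experiments.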
Target,NP40-soluble protein abundance (concentration: 0.1mM),NP40-soluble protein abundance (concentration: 0.5mM),NP40-soluble protein abundance (concentration: 1mM),NP40-soluble protein abundance (concentration: 2mM),NP40-soluble protein abundance (concentration: 4mM),NP40-soluble protein abundance (concentration: 6mM),NP40-soluble protein abundance (concentration: 8mM),NP40-soluble protein abundance (concentration: 10mM)
GABPA (UniProt Q06546),1.02 ± 0.033,0.982 ± 0.018,0.921 ± 0.052,0.914 ± 0.088,0.868 ± 0.066,0.889 ± 0.043,0.871 ± 0.058,0.83 ± 0.098
UniProt Q01082 and related entries,0.93 ± 0.067,0.978 ± 0.069,0.963 ± 0.067,0.956 ± 0.069,1.04 ± 0.07,1.17 ± 0.074,1.27 ± 0.08,1.31 ± 0.097
UniProt Q13085 and related entries,1.09 ± 0.08,1.09 ± 0.11,1.03 ± 0.088,1.07 ± 0.14,1.05 ± 0.11,1.04 ± 0.097,0.975 ± 0.072,0.956 ± 0.056
THOC5 (UniProt Q13769),1.18 ± 0.0098,1.35 ± 0.093,1.5 ± 0.18,1.83 ± 0.36,2.21 ± 0.56,2.3 ± 0.66,2.45 ± 0.77,2.37 ± 0.74
RPL6 (UniProt Q02878),0.975 ± 0.041,1.02 ± 0.099,1.03 ± 0.12,0.999 ± 0.2,0.899 ± 0.19,0.865 ± 0.18,0.706 ± 0.14,0.882 ± 0.21
UniProt Q12800 and related entries,1.09 ± 0.043,1.12 ± 0.065,1.03 ± 0.046,1.08 ± 0.059,1.04 ± 0.07,1.02 ± 0.034,0.994 ± 0.098,0.987 ± 0.064
CUL4A (UniProt Q13619),1.07 ± 0.041,1.09 ± 0.077,1.02 ± 0.045,1.03 ± 0.11,0.989 ± 0.09,0.987 ± 0.076,0.987 ± 0.061,0.934 ± 0.042
UniProt Q13625 and related entries,0.939 ± 0.058,0.941 ± 0.08,0.918 ± 0.059,0.93 ± 0.12,0.924 ± 0.072,0.923 ± 0.1,0.967 ± 0.049,0.998 ± 0.057
TMED1 (UniProt Q13445),1.01 ± 0.068,0.98 ± 0.073,1 ± 0.13,0.967 ± 0.1,1 ± 0.13,0.948 ± 0.14,1.01 ± 0.12,0.904 ± 0.13
UniProt Q01826 and related entries,0.968 ± 0.019,0.937 ± 0.05,1.01 ± 0.036,0.996 ± 0.06,0.984 ± 0.038,0.969 ± 0.029,0.975 ± 0.029,0.982 ± 0.05
RNASEL (UniProt Q05823),1.08 ± 0.03,1.1 ± 0.043,1.12 ± 0.041,1.07 ± 0.05,1.04 ± 0.022,1.05 ± 0.027,1.1 ± 0.029,1.03 ± 0.056
UniProt Q12792 and related entries,1.09 ± 0.098,1.11 ± 0.14,1.02 ± 0.024,1.04 ± 0.0074,1.03 ± 0.05,0.974 ± 0.082,1.06 ± 0.036,0.993 ± 0.063
CDR2 (UniProt Q01850),1.03 ± 0.042,0.998 ± 0.1,1.02 ± 0.14,1.06 ± 0.057,0.989 ± 0.11,1.04 ± 0.11,1.01 ± 0.13,1.02 ± 0.075
FRG1 (UniProt Q14331),1.02 ± 0.041,1.07 ± 0.056,1.03 ± 0.032,1.04 ± 0.023,1.1 ± 0.046,1.11 ± 0.038,1.18 ± 0.08,1.15 ± 0.056
TRIM32 (UniProt Q13049),1.045 ± 0.0031,1.029 ± 0.0045,1.01 ± 0.12,1.12 ± 0.16,1.09 ± 0.082,1.12 ± 0.15,1.11 ± 0.12,1.05 ± 0.058
UniProt Q14684 and related entries,0.96 ± 0.015,0.946 ± 0.033,1 ± 0.017,1.01 ± 0.026,1.03 ± 0.031,1.06 ± 0.044,1.087 ± 0.0059,1.15 ± 0.045
Q13888 and related entries (UniProt Q6P1K8+Q13888),1.13 ± 0.22,1.14 ± 0.19,1.12 ± 0.18,1.17 ± 0.15,1.17 ± 0.21,1.15 ± 0.16,1.17 ± 0.24,1.15 ± 0.16
UniProt Q10567 and related entries,0.918 ± 0.056,0.927 ± 0.032,0.956 ± 0.054,0.943 ± 0.044,0.954 ± 0.04,0.919 ± 0.051,0.921 ± 0.05,0.924 ± 0.054
ITPK1 (UniProt Q13572),0.997 ± 0.085,0.965 ± 0.064,0.904 ± 0.095,0.981 ± 0.077,0.981 ± 0.15,0.943 ± 0.18,0.924 ± 0.13,0.953 ± 0.09
SOX4 (UniProt Q06945),0.936 ± 0.066,0.882 ± 0.045,0.958 ± 0.057,0.938 ± 0.096,0.94 ± 0.12,0.978 ± 0.092,0.977 ± 0.074,1.03 ± 0.085

# A different layout for part of the listing above:
Target | NP40-soluble protein abundance (concentration: 0.1mM) | NP40-soluble protein abundance (concentration: 0.5mM) | NP40-soluble protein abundance (concentration: 1mM) | NP40-soluble protein abundance (concentration: 2mM) | NP40-soluble protein abundance (concentration: 4mM) | NP40-soluble protein abundance (concentration: 6mM) | NP40-soluble protein abundance (concentration: 8mM) | NP40-soluble protein abundance (concentration: 10mM)
TRIM32 (UniProt Q13049) | 1.045 ± 0.0031 | 1.029 ± 0.0045 | 1.01 ± 0.12 | 1.12 ± 0.16 | 1.09 ± 0.082 | 1.12 ± 0.15 | 1.11 ± 0.12 | 1.05 ± 0.058
UniProt Q14684 and related entries | 0.96 ± 0.015 | 0.946 ± 0.033 | 1 ± 0.017 | 1.01 ± 0.026 | 1.03 ± 0.031 | 1.06 ± 0.044 | 1.087 ± 0.0059 | 1.15 ± 0.045
ITPK1 (UniProt Q13572) | 0.997 ± 0.085 | 0.965 ± 0.064 | 0.904 ± 0.095 | 0.981 ± 0.077 | 0.981 ± 0.15 | 0.943 ± 0.18 | 0.924 ± 0.13 | 0.953 ± 0.09
